US8003640B2, “Organic compounds” (Novartis AG, priority 2007, dated 2011)
Some of these results come from one statement about several compounds together.

Molecular target: T1, renin (Homo sapiens, UniProt P00797)
T1 construct: This test measures the formation of angiotensin I in human plasma; from tissue; host or cells: human plasma
T1 sequence (P00797 67-406): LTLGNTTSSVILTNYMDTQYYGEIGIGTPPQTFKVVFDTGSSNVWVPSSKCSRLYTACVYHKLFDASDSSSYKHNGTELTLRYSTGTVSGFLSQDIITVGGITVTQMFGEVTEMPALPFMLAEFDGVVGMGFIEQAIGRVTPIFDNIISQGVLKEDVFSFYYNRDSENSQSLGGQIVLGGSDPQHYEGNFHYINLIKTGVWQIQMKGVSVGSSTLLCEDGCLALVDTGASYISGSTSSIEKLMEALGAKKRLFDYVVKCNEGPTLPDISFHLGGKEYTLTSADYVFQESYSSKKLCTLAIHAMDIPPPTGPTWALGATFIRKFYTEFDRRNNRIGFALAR
Test: Formation of angiotensin I in human plasma (Nussberger et al.), radioimmunoassay
Type: biochemical
Conditions: values given as a range of about

Structure (SMILES)	IC50, inhibition of the formation of angiotensin I
CCO[C@H](C)COCc1ccc([C@H]2[C@H](COC(C)=O)CNC[C@@H]2OCc2ccc3c(c2)N(CCCOC)CCO3)cc1 [Example 2, Acetic acid (3S,4R,5R)-4-[4-((R)-2-ethoxy-propoxymethyl)-phenyl]-5-[4-(3-methoxypropyl)-3,4-dihydro-2H-benzo[1,4]oxazin-6-ylmethoxy]-piperidin-3-ylmethyl ester]	0.1−100 10^−9 mol/l
CCO[C@H](C)COCc1ccc([C@H]2[C@H](CO)CNC[C@@H]2OCc2ccc3c(c2)N(CCCOC)CCO3)cc1 [Example 1, {(3S,4R,5R)-4-[4-((R)-2-Ethoxy-propoxymethyl)-phenyl]-5-[4-(3-methoxy-propyl)-3,4-dihydro-2H-benzo[1,4]oxazin-6-ylmethoxy]-piperidin-3-yl}-methanol]	0.1−100 10^−9 mol/l
